Laboratory results as given in publication PMC6986101.

Biological target: T1, WT TRAP1 with C-terminal HA tag (pcDNA3.1 (+) MTS-TRAP1-HA) (human), Q12931
T1 chain: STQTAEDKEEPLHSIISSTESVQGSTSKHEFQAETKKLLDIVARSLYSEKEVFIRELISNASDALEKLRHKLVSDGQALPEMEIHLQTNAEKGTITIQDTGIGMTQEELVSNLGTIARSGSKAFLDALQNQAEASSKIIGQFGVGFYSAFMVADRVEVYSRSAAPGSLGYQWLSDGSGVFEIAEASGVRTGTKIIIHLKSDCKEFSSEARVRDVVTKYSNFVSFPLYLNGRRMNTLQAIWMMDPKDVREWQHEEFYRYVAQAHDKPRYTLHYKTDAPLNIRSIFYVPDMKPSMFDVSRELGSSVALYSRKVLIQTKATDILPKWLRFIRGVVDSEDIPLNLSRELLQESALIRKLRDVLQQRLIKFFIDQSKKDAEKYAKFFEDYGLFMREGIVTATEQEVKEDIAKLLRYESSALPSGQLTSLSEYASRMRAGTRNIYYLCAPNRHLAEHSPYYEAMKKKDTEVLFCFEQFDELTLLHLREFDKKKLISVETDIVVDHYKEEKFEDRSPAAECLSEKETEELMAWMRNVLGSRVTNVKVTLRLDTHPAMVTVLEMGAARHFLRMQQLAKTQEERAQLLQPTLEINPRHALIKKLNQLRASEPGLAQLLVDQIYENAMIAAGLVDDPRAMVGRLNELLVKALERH
Test: affinity purification with mass spectrometry; anti-HA IP (Dynabeads-Protein G) from 1 mg clarified mitochondrial lysate of transfected HEK293T cells, overnight at 4 °C; lysis buffer 10 mM Tris-HCl pH 7.5, 50 mM NaCl, 1 mM EDTA, 1 mM DTT, 10% glycerol, 10 mM sodium molybdate, 0.1% Triton X-100; LC/MS/MS; list filtered for mitochondrial proteins with 4 or more unique peptides
Settings: remark: other sources report otherwise

- binding: no binding
B1: PINK1, Q9BXM7 78-581 (protein)
chain: AARLQRQFVVRAWGCAGPCGRAVFLAFGLGLGLIEEKQAESRRAVSACQEIQAIFTQKSKPGPDPLDTRRLQGFRLEEYLIGQSIGKGCSAAVYEATMPTLPQNLEVTKSTGLLPGRGPGTSAPGEGQERAPGAPAFPLAIKMMWNISAGSSSEAILNTMSQELVPASRVALAGEYGAVTYRKSKRGPKQLAPHPNIIRVLRAFTSSVPLLPGALVDYPDVLPSRLHPEGLGHGRTLFLVMKNYPCTLRQYLCVNTPSPRLAAMMLLQLLEGVDHLVQQGIAHRDLKSDNILVELDPDGCPWLVIADFGCCLADESIGLQLPFSSWYVDRGGNGCLMAPEVSTARPGPRAVIDYSKADAWAVGAIAYEIFGLVNPFYGQGKAHLESRSYQEAQLPALPESVPPDVRQLVRALLQREASKRPSARVAANVLHLSLWGEHILALKNLKLDKMVGWLLQQSAATLLANRLTEKCCVETKMKMLFLANLECETLCQAALLLCSWRAAL

These are yes or no findings as the source states them, for the method shown. In cells and extracts the contact can be indirect. A yes stands for co-enrichment or nearness to the bait. Other partners may have been found. A no says only that the protein was not detected with the bait. Where a sequence is shown, tags or fusion partners need not be part of it.
